Data source: PubChem BioAssay AID1259405 (NCATS, 2018)
This is one part, drawn at random, of about 50,000 reagents tested. Over the whole deposit, about 4,000 (8%) got an active call. 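Mouse siRNA library applied to hamster cells; one well for each siRNA.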 Reagents against one gene are numbered here.

Screen: 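Knock-downs that lift recombinant protein yield in hamster ovary cells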 (primary screen)
Cells: Chinese hamster CHO-K1 ovary cells with stable secreted eGFP expression
Reagents: single siRNA against mouse genes, 0.8 pmol siRNA per well (2 µl of 400 nM stock)
Timing: 3 days
Read-out: 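Percent of the per-plate non-targeting control median for intracellular GFP per well by laser scanning cytometry and for cell viability by ATP luminescence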
Scale: GFP, % of control: higher = more GFP per well, higher productivity; viability (ATP), % of control: higher = more viable cells (more ATP)
Hit rule: 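Called active when intracellular GFP, relative to negative control, is at or above 120%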

Mycbp #1 | GFP, % of control: 78.8; viability (ATP), % of control: 54; Outcome: inactive
Mycbp #2 | GFP, % of control: 55.2; viability (ATP), % of control: 82.5; Outcome: inactive
Mycbp #3 | GFP, % of control: 78.8; viability (ATP), % of control: 83.8; Outcome: inactive
Map2k5 #1 | GFP, % of control: 73.3; viability (ATP), % of control: 96.2; Outcome: inactive
Map2k5 #2 | GFP, % of control: 63.3; viability (ATP), % of control: 47.1; Outcome: inactive
Map2k5 #3 | GFP, % of control: 80.8; viability (ATP), % of control: 74.8; Outcome: inactive
Kbtbd2 #1 | GFP, % of control: 58.2; viability (ATP), % of control: 68.8; Outcome: inactive
Kbtbd2 #2 | GFP, % of control: 60.4; viability (ATP), % of control: 79.4; Outcome: inactive
Kbtbd2 #3 | GFP, % of control: 99.4; viability (ATP), % of control: 80; Outcome: inactive
Ift70a1 #1 | GFP, % of control: 83.1; viability (ATP), % of control: 69.8; Outcome: inactive
Ift70a1 #2 | GFP, % of control: 80.9; viability (ATP), % of control: 79.9; Outcome: inactive
Ift70a1 #3 | GFP, % of control: 51.4; viability (ATP), % of control: 81.6; Outcome: inactive
Or5bh3 #1 | GFP, % of control: 45.5; viability (ATP), % of control: 33.5; Outcome: inactive
Or5bh3 #2 | GFP, % of control: 106; viability (ATP), % of control: 97.5; Outcome: inactive
Or5bh3 #3 | GFP, % of control: 75.5; viability (ATP), % of control: 73.4; Outcome: inactive
Aox1 #1 | GFP, % of control: 86.9; viability (ATP), % of control: 122; Outcome: inactive
Aox1 #2 | GFP, % of control: 51.6; viability (ATP), % of control: 76.1; Outcome: inactive
Cd200r1l #1 | GFP, % of control: 103; viability (ATP), % of control: 59.3; Outcome: inactive
Cd200r1l #2 | GFP, % of control: 45.8; viability (ATP), % of control: 74.9; Outcome: inactive
Cd200r1l #3 | GFP, % of control: 40.6; viability (ATP), % of control: 69.4; Outcome: inactive

4 neighbouring entries from above, for reference:
Map2k5 #1 | GFP, % of control: 73.3; viability (ATP), % of control: 96.2; Outcome: inactive
Map2k5 #2 | GFP, % of control: 63.3; viability (ATP), % of control: 47.1; Outcome: inactive
Map2k5 #3 | GFP, % of control: 80.8; viability (ATP), % of control: 74.8; Outcome: inactive
Kbtbd2 #1 | GFP, % of control: 58.2; viability (ATP), % of control: 68.8; Outcome: inactive

More entries follow.
Defb40 #1 | GFP, % of control: 58.5; viability (ATP), % of control: 89.7; Outcome: inactive
Defb40 #2 | GFP, % of control: 70.3; viability (ATP), % of control: 47.2; Outcome: inactive
Defb40 #3 | GFP, % of control: 93.3; viability (ATP), % of control: 41.4; Outcome: inactive
Flot2 #1 | GFP, % of control: 103; viability (ATP), % of control: 102; Outcome: inactive
Flot2 #2 | GFP, % of control: 85.9; viability (ATP), % of control: 86.9; Outcome: inactive
Slc12a5 #1 | GFP, % of control: 88.7; viability (ATP), % of control: 62.4; Outcome: inactive
Slc12a5 #2 | GFP, % of control: 115; viability (ATP), % of control: 84.1; Outcome: inactive
Slc12a5 #3 | GFP, % of control: 129; viability (ATP), % of control: 111; Outcome: active
Arfgap3 #1 | GFP, % of control: 126; viability (ATP), % of control: 63.6; Outcome: active
Arfgap3 #2 | GFP, % of control: 88.8; viability (ATP), % of control: 108; Outcome: inactive
Arfgap3 #3 | GFP, % of control: 105; viability (ATP), % of control: 95.6; Outcome: inactive
Odf1 #1 | GFP, % of control: 70; viability (ATP), % of control: 93.4; Outcome: inactive
Odf1 #2 | GFP, % of control: 85.6; viability (ATP), % of control: 82.1; Outcome: inactive
Fam53c #1 | GFP, % of control: 88.9; viability (ATP), % of control: 99.6; Outcome: inactive
Fam53c #2 | GFP, % of control: 38; viability (ATP), % of control: 78.2; Outcome: inactive
Fam53c #3 | GFP, % of control: 82.5; viability (ATP), % of control: 76.1; Outcome: inactive
Tiam2 #1 | GFP, % of control: 68.5; viability (ATP), % of control: 111; Outcome: inactive
Tiam2 #2 | GFP, % of control: 82.2; viability (ATP), % of control: 87.3; Outcome: inactive
Tiam2 #3 | GFP, % of control: 60.8; viability (ATP), % of control: 79.2; Outcome: inactive
Cdh8 #1 | GFP, % of control: 112; viability (ATP), % of control: 77.4; Outcome: inactive
Cdh8 #2 | GFP, % of control: 62.1; viability (ATP), % of control: 44; Outcome: inactive
Cdh8 #3 | GFP, % of control: 123; viability (ATP), % of control: 82; Outcome: active
Defb37 #1 | GFP, % of control: 50.6; viability (ATP), % of control: 49.2; Outcome: inactive
Defb37 #2 | GFP, % of control: 71.6; viability (ATP), % of control: 83.9; Outcome: inactive
Defb37 #3 | GFP, % of control: 116; viability (ATP), % of control: 72.8; Outcome: inactive
Lratd2 #1 | GFP, % of control: 69.9; viability (ATP), % of control: 81; Outcome: inactive
Lratd2 #2 | GFP, % of control: 72.5; viability (ATP), % of control: 87.1; Outcome: inactive
Lratd2 #3 | GFP, % of control: 80; viability (ATP), % of control: 72; Outcome: inactive
Gatd1 #1 | GFP, % of control: 74.5; viability (ATP), % of control: 54.9; Outcome: inactive
Gatd1 #2 | GFP, % of control: 70; viability (ATP), % of control: 72.9; Outcome: inactive
Gatd1 #3 | GFP, % of control: 114; viability (ATP), % of control: 101; Outcome: inactive
Papolg #1 | GFP, % of control: 76.1; viability (ATP), % of control: 77.3; Outcome: inactive
Papolg #2 | GFP, % of control: 121; viability (ATP), % of control: 94.7; Outcome: active
